Taken from: PubChem BioAssay AID1508597 (Cure First, 2020)

Purpose: 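Genes whose silencing sensitises or protects ovarian cancer cells against rucaparib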 (primary screen)
Cell system: human ovarian carcinoma lines grown from tumours: OCI-P5x (papillary serous) and OCI-C5x (clear cell)
Reagents: siRNA pool against human genes, 1.25 pmol siRNA per well
Time to read-out: 72 h or 96 h, depending on the cell culture
Conditions: rucaparib 20 µM (about IC30) or vehicle, present until read-out
Rucaparib or vehicle: Vehicle
Cell line: OCI-P5x (serous)
Measurement: 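Luminescent ATP-based viability assay read 72 or 96 h after transfection, depending on culture, given as normalised percent viability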
Scale: viability, normalised: higher = more viable cells remaining
Call rule: 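a well counts as a hit if its normalised viability is under 80 percent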
Calls: active = viability under 80%; inactive = viability 80% or more
This is an unselected part of the about 2,100 reagents, under one of the conditions tested. 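Calls flag viability under 80% in either arm, not effects specific to rucaparib; the reference for percent is not stated.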 Unmarked entries are inactive. Not given: the 100% reference.

The first 7 records, to show the layout:
| gene symbol | technical replicate | viability, normalised (%) |
| --- | --- | --- |
| CARD14 (caspase recruitment domain family member 14) | 1 | 85.3 |
| CARD14 (caspase recruitment domain family member 14) | 2 | 82.8 |
| CARD14 (caspase recruitment domain family member 14) | 3 | 60.3 (active) |
| MTOR (mechanistic target of rapamycin kinase) | 1 | 93.7 |
| MTOR (mechanistic target of rapamycin kinase) | 2 | 85.4 |
| MTOR (mechanistic target of rapamycin kinase) | 3 | 94.7 |
| BCL10 (BCL10 immune signaling adaptor) | 1 | 50.3 (active) |

Main list, from the start:
| gene symbol | technical replicate | viability, normalised (%) |
| --- | --- | --- |
| CARD14 (caspase recruitment domain family member 14) | 1 | 85.3 |
| CARD14 (caspase recruitment domain family member 14) | 2 | 82.8 |
| CARD14 (caspase recruitment domain family member 14) | 3 | 60.3 (active) |
| MTOR (mechanistic target of rapamycin kinase) | 1 | 93.7 |
| MTOR (mechanistic target of rapamycin kinase) | 2 | 85.4 |
| MTOR (mechanistic target of rapamycin kinase) | 3 | 94.7 |
| BCL10 (BCL10 immune signaling adaptor) | 1 | 50.3 (active) |
| BCL10 (BCL10 immune signaling adaptor) | 2 | 67.6 (active) |
| BCL10 (BCL10 immune signaling adaptor) | 3 | 73.4 (active) |
| STK3 (serine/threonine kinase 3) | 1 | 67.9 (active) |
| STK3 (serine/threonine kinase 3) | 2 | 70 (active) |
| STK3 (serine/threonine kinase 3) | 3 | 68 (active) |
| CDYL (chromodomain Y like) | 1 | 64.9 (active) |
| CDYL (chromodomain Y like) | 2 | 81.6 |
| CDYL (chromodomain Y like) | 3 | 70.5 (active) |
| SPTA1 (spectrin alpha, erythrocytic 1) | 1 | 56.4 (active) |
| SPTA1 (spectrin alpha, erythrocytic 1) | 2 | 64.2 (active) |
| SPTA1 (spectrin alpha, erythrocytic 1) | 3 | 61.9 (active) |
| KDM4D (lysine demethylase 4D) | 1 | 55.6 (active) |
| KDM4D (lysine demethylase 4D) | 2 | 47.7 (active) |
| KDM4D (lysine demethylase 4D) | 3 | 50.5 (active) |
| KMT5C (lysine methyltransferase 5C) | 1 | 76.4 (active) |
| KMT5C (lysine methyltransferase 5C) | 2 | 57.2 (active) |
| KMT5C (lysine methyltransferase 5C) | 3 | 50.1 (active) |
| CTCF (CCCTC-binding factor) | 1 | 55.6 (active) |
| CTCF (CCCTC-binding factor) | 2 | 51.4 (active) |
| CTCF (CCCTC-binding factor) | 3 | 55.9 (active) |
| F3 (coagulation factor III, tissue factor) | 1 | 39.7 (active) |
| F3 (coagulation factor III, tissue factor) | 2 | 61.1 (active) |
| F3 (coagulation factor III, tissue factor) | 3 | 53.6 (active) |
| MAPK9 (mitogen-activated protein kinase 9) | 1 | 99.2 |
| MAPK9 (mitogen-activated protein kinase 9) | 2 | 69.9 (active) |
| MAPK9 (mitogen-activated protein kinase 9) | 3 | 71.8 (active) |
| DMBT1 (deleted in malignant brain tumors 1) | 1 | 63.6 (active) |
| DMBT1 (deleted in malignant brain tumors 1) | 2 | 56 (active) |
| DMBT1 (deleted in malignant brain tumors 1) | 3 | 57.7 (active) |
| TNRC6B (trinucleotide repeat containing adaptor 6B) | 1 | 95.6 |
| TNRC6B (trinucleotide repeat containing adaptor 6B) | 2 | 117 |
| TNRC6B (trinucleotide repeat containing adaptor 6B) | 3 | 123 |
| DDX60 (DExD/H-box helicase 60) | 1 | 71 (active) |
| DDX60 (DExD/H-box helicase 60) | 2 | 72.8 (active) |
| DDX60 (DExD/H-box helicase 60) | 3 | 65.8 (active) |
| TYK2 (tyrosine kinase 2) | 1 | 63.8 (active) |
| TYK2 (tyrosine kinase 2) | 2 | 82 |
| TYK2 (tyrosine kinase 2) | 3 | 87.3 |
| MAP4K3 (mitogen-activated protein kinase kinase kinase kinase 3) | 1 | 93.4 |
| MAP4K3 (mitogen-activated protein kinase kinase kinase kinase 3) | 2 | 100 |
| MAP4K3 (mitogen-activated protein kinase kinase kinase kinase 3) | 3 | 98.8 |
| SLC2A9 | 1 | 46.5 (active) |
| SLC2A9 | 2 | 58.9 (active) |
| SLC2A9 | 3 | 65.5 (active) |
| EPHA6 (EPH receptor A6) | 1 | 78.1 (active) |
| EPHA6 (EPH receptor A6) | 2 | 75.1 (active) |
| EPHA6 (EPH receptor A6) | 3 | 74.1 (active) |
| CHD4 (chromodomain helicase DNA binding protein 4) | 1 | 58.7 (active) |
| CHD4 (chromodomain helicase DNA binding protein 4) | 2 | 64.1 (active) |
| CHD4 (chromodomain helicase DNA binding protein 4) | 3 | 55.9 (active) |
